Experimental data reported in the supplement of paper PMC6411743.
± gives the standard deviation of the averaged measurements. Only a part is listed here, and it is no random draw.

Amino acid sequences for entries named in this document (tags omitted). A change or cut given only in a name is not applied to a line headed by its entry.
UniProt Q9NZM3: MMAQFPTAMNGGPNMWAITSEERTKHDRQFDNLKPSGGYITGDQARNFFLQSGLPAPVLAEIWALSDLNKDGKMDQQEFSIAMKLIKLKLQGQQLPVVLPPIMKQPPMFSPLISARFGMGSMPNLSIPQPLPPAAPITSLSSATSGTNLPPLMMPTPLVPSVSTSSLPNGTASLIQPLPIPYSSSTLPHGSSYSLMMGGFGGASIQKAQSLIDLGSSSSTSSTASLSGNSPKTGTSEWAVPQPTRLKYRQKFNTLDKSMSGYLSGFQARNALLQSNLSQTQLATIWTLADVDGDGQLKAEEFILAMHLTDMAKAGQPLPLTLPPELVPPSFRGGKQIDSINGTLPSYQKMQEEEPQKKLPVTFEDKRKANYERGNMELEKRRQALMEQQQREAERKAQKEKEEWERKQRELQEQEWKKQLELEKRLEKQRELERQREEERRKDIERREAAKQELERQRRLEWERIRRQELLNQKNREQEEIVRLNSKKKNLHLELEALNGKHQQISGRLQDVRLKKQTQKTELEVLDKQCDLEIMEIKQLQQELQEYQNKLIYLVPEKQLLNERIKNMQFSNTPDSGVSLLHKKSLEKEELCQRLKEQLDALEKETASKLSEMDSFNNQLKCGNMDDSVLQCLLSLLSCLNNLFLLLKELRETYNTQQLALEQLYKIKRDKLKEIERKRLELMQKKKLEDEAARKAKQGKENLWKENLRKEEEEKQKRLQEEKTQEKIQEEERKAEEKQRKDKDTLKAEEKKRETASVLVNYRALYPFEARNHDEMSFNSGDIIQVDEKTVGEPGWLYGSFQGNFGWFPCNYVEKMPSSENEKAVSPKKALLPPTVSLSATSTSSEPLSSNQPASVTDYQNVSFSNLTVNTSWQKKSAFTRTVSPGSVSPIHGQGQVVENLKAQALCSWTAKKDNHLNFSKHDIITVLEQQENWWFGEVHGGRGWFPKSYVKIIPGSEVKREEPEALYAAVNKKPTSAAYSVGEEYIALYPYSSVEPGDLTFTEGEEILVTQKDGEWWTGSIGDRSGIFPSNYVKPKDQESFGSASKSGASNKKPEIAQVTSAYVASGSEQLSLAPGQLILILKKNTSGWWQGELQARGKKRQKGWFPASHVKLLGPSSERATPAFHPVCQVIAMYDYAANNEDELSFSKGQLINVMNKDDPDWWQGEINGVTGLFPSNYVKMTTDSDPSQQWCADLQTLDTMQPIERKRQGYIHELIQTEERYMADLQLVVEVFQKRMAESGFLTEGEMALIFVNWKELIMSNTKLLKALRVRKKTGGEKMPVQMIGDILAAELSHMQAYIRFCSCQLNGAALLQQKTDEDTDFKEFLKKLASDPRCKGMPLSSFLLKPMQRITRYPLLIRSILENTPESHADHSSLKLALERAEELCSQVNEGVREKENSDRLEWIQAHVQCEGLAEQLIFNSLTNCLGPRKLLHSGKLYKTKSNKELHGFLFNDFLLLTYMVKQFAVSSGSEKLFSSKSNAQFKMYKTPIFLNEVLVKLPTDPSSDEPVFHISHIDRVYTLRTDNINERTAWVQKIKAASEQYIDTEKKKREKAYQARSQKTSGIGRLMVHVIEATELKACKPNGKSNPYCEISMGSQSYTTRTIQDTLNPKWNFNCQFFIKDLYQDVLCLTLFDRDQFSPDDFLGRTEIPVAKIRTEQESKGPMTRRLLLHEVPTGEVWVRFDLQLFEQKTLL
UniProt Q6UXV4: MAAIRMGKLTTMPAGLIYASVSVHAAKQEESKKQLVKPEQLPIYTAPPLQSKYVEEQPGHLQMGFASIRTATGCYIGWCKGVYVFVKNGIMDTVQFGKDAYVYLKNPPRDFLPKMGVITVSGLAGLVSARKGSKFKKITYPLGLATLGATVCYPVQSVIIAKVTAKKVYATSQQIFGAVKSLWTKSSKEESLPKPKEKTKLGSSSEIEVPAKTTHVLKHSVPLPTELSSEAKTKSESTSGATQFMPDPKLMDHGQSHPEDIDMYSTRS
UniProt Q9NV06: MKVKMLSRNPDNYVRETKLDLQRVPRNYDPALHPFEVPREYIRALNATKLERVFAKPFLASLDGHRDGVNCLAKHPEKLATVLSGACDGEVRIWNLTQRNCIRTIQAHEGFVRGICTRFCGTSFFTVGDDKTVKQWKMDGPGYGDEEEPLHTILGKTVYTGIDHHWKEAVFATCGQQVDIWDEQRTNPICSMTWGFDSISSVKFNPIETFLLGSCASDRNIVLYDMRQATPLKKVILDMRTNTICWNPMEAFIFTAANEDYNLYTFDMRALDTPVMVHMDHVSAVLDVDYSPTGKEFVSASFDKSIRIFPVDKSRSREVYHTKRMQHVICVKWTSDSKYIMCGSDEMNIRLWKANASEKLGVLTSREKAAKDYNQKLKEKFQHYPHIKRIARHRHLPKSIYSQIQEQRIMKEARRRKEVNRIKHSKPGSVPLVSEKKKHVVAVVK
UniProt Q8TCU4: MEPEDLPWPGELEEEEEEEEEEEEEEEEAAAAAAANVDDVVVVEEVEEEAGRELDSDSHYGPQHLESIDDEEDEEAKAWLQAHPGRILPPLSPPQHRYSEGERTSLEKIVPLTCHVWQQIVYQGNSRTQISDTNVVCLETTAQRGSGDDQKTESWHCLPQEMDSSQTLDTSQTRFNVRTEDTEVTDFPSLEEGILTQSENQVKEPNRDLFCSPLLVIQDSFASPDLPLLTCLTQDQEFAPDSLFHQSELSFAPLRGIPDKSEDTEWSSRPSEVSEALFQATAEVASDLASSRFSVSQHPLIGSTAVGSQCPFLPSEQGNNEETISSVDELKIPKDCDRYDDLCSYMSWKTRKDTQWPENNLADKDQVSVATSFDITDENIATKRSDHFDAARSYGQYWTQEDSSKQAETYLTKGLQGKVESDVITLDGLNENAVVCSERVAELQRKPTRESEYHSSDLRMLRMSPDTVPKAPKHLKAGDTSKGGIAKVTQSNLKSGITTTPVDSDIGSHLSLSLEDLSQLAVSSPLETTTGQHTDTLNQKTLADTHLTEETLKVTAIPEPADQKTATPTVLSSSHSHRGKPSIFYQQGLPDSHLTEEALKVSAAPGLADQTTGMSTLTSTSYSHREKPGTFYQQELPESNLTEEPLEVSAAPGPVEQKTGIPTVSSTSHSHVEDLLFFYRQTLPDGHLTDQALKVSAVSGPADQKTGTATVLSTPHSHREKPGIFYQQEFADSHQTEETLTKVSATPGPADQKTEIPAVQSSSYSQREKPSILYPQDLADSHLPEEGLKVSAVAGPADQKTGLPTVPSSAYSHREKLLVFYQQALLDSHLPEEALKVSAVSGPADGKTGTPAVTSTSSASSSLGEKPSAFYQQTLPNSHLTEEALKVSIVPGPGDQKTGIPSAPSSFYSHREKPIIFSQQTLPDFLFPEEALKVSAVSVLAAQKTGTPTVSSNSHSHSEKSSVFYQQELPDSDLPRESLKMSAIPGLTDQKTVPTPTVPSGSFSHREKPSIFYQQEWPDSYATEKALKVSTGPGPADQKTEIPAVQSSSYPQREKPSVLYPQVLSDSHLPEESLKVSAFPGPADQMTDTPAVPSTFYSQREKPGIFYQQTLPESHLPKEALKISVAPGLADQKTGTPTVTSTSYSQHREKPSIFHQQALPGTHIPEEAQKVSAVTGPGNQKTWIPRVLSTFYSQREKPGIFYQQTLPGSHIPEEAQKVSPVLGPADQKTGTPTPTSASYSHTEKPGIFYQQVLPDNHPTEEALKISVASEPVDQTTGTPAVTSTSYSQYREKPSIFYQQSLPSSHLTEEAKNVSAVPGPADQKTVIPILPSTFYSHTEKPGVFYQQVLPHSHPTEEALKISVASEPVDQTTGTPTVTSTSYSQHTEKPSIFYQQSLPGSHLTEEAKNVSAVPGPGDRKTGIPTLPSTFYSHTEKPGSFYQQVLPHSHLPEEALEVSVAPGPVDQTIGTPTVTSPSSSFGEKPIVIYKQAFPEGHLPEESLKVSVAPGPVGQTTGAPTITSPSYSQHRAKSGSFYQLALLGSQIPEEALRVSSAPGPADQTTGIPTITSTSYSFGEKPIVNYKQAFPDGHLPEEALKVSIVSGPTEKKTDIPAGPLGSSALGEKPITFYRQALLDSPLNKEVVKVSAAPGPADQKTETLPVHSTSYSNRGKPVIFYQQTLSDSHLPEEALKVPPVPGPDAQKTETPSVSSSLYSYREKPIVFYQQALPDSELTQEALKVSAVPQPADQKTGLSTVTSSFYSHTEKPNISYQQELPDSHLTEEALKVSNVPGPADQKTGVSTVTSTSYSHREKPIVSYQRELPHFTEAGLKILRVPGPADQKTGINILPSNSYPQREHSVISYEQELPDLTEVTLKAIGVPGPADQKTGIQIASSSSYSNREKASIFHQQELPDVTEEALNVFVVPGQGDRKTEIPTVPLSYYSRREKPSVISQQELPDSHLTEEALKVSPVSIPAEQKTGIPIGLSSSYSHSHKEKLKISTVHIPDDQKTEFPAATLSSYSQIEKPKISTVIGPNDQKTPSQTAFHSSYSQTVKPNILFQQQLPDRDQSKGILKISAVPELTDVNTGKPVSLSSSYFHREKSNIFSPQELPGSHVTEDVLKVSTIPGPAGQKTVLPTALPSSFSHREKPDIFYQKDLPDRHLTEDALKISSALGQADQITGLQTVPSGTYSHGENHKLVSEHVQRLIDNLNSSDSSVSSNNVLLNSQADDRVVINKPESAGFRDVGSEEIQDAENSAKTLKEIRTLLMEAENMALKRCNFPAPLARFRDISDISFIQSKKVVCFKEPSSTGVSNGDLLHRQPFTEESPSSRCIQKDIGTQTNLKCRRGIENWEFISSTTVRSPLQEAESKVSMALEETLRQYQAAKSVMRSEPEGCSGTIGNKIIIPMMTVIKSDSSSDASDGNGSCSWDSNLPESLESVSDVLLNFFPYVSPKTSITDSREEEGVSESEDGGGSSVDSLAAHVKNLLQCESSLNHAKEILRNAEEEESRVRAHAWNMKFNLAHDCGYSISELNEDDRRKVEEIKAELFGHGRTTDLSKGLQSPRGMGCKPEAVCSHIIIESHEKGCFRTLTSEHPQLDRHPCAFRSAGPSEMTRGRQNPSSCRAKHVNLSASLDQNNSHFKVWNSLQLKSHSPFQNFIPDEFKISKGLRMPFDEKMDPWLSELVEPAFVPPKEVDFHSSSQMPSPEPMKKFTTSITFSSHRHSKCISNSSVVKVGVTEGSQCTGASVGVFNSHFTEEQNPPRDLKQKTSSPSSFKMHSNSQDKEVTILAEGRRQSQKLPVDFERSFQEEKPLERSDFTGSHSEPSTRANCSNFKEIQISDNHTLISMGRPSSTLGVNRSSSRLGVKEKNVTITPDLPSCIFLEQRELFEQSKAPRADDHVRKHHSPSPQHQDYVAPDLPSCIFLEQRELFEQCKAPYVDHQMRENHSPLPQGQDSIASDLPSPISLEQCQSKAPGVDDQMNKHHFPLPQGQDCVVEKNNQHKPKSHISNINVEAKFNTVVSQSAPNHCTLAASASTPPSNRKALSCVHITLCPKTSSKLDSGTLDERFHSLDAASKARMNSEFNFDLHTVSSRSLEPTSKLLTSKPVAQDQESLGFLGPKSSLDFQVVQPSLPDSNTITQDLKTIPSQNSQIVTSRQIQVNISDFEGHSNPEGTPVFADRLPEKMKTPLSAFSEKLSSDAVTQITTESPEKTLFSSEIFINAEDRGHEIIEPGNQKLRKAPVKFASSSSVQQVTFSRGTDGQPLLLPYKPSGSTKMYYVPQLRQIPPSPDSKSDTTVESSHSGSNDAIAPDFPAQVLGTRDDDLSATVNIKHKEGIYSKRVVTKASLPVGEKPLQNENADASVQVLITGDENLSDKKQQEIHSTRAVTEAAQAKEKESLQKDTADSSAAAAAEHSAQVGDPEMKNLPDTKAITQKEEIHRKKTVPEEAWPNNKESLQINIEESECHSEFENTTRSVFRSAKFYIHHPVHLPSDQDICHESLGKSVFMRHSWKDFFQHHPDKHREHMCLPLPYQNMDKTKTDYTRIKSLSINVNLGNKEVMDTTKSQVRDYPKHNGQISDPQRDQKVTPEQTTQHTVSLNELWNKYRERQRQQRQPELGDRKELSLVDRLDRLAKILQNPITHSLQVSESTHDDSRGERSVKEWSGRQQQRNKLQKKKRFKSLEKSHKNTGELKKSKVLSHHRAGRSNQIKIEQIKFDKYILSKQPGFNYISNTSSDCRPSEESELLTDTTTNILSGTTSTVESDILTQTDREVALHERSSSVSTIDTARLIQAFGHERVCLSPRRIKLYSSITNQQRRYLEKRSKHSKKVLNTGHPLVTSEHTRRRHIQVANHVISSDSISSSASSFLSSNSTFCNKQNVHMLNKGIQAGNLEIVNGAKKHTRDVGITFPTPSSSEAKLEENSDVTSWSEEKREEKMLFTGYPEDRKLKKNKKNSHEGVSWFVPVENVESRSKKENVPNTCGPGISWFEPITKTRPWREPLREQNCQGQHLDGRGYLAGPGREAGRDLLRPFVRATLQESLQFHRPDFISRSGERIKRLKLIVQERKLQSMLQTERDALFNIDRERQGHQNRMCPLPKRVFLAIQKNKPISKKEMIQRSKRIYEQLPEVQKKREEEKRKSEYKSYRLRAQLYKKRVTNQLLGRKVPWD

Each target was assayed with Nc1ncnc2c1ncn2[C@@H]1O[C@H](COP(=O)(O)OP(=O)(O)NP(=O)(O)O)[C@@H](O)[C@H]1O [adenylyl imidodiphosphate] (assay: NP40-soluble protein abundance relative to vehicle (solubility fold change) (ratio); higher = more soluble protein in presence of AMP-PNP). Conditions: concentration: 8mM.
Procedure, shortened: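 Jurkat crude lysate (Dounce-homogenised) was treated with eight concentrations from 0.1 to 10 mM for 10 min at room temperature, then 3 min at 37 °C. It was solubilised with 0.8% NP40 and benzonase (60 min, 4 °C) and ultracentrifuged, and the supernatant was TMT-labelled for LC-MS/MS. Intensities were vsn-normalised, and the value is the fold change against the NP40-processed vehicle per replicate, from three independent experiments.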

Q: With A0A087WU53|Q9H0U3 (UniProt Q9H0U3) as the target, how does the NP40-soluble protein abundance read?
A: 1.03 ± 0.038

Q: With A0A024RAC6 (UniProt Q14241) as the target, how does the NP40-soluble protein abundance read?
A: 1.06 ± 0.022

Q: With “A0A087WVF7|Q9NZM3 and related entries (UniProt Q9NZM3)” as the target, how does the NP40-soluble protein abundance read?
A: 1.01 ± 0.023

Q: For “A0A075B738|P16284 and related entries (UniProt P16284)”, which NP40-soluble protein abundance is on record?
A: 0.98 ± 0.013

Q: How did the NP40-soluble protein abundance turn out when “A0A087WUP3|F8WBY6 and related entries (UniProt Q8N3Z3)” was run?
A: 0.9918 ± 0.0081

Q: How did the NP40-soluble protein abundance turn out when “A0A087WUX8|A0A087WYF7|Q6UXV4 (UniProt Q6UXV4)” was run?
A: 1.08 ± 0.038

Q: For A0A087WU65|Q9NRW7 (UniProt Q9NRW7), which NP40-soluble protein abundance is on record?
A: 0.979 ± 0.035

Q: Which NP40-soluble protein abundance does the source give for A0A087WT20|Q9NV06 (UniProt Q9NV06) here?
A: 1.027 ± 0.0046

Q: Which NP40-soluble protein abundance does the source give for A0A087WUL2|P49720 (UniProt P49720) here?
A: 1.1 ± 0.13

Q: For “A0A087WTU9|A0A087WZY3|Q8TCU4 and related entries (UniProt Q8TCU4)”, which NP40-soluble protein abundance is on record?
A: 0.904 ± 0.041

Q: How did the NP40-soluble protein abundance turn out when A0A024QZP7|P06493 (UniProt P06493) was run?
A: 1.053 ± 0.004

Q: How did the NP40-soluble protein abundance turn out when “A0A087WV86|B5LMG6 and related entries (UniProt Q6PGQ7+B5LMG6)” was run?
A: 1.006 ± 0.0059

Q: Which NP40-soluble protein abundance does the source give for A0A087WUT6|O60841 (UniProt O60841) here?
A: 1.004 ± 0.0073

Q: With A0A087WV05|Q99417 (UniProt Q99417) as the target, how does the NP40-soluble protein abundance read?
A: 0.915 ± 0.015

Q: For “A0A087WUU7|Q96GX5 and related entries (UniProt Q96GX5)”, which NP40-soluble protein abundance is on record?
A: 0.967 ± 0.011

Q: “A0A024RCR6|A0A0G2JK23|P46379 and related entries (UniProt P46379)” was tested. Which NP40-soluble protein abundance did it give?
A: 0.953 ± 0.026

Same assay, conditions: concentration: 10mM

Q: Which NP40-soluble protein abundance does the source give for “A0A087WVS8|Q70IA6 and related entries (UniProt Q70IA6)” here?
A: 0.9181 ± 0.007

Q: A0A087WTX2|Q92504 (UniProt Q92504) was tested. Which NP40-soluble protein abundance did it give?
A: 0.864 ± 0.043

Q: For “A0A087WVA8|Q8IWB9 and related entries (UniProt Q8IWB9)”, which NP40-soluble protein abundance is on record?
A: 0.991 ± 0.027

Q: “A0A087WV73|P46087 and related entries (UniProt P46087)” was tested. Which NP40-soluble protein abundance did it give?
A: 1.43 ± 0.093

Q: With A0A087WT30|Q8N5I9 (UniProt Q8N5I9) as the target, how does the NP40-soluble protein abundance read?
A: 1.14 ± 0.041

Q: Which NP40-soluble protein abundance does the source give for “A0A087WV23|Q5T123 and related entries (UniProt Q9H299)” here?
A: 0.962 ± 0.039

Q: For “A0A075B6T4|Q9NVX7 and related entries (UniProt Q9NVX7)”, which NP40-soluble protein abundance is on record?
A: 0.941 ± 0.076

Q: With “A0A075B716|H0YN88 and related entries (UniProt P08708)” as the target, how does the NP40-soluble protein abundance read?
A: 0.966 ± 0.15

Q: A0A087WUD1|Q6DD87 (UniProt Q6DD87) was tested. Which NP40-soluble protein abundance did it give?
A: 0.994 ± 0.048

Q: How did the NP40-soluble protein abundance turn out when “A0A087WUS0|E7ETK0 and related entries (UniProt P62847)” was run?
A: 0.939 ± 0.17

Q: A0A087WTU3|Q9Y6I9 (UniProt Q9Y6I9) was tested. Which NP40-soluble protein abundance did it give?
A: 0.983 ± 0.035

Q: With A0A087WUW9|Q9NXU5 (UniProt Q9NXU5) as the target, how does the NP40-soluble protein abundance read?
A: 0.999 ± 0.043

Q: With “A0A087WU02|F8VPA6 and related entries (UniProt Q96RQ1)” as the target, how does the NP40-soluble protein abundance read?
A: 0.981 ± 0.01

Q: “A0A024R7E8|K7EMV4 and related entries (UniProt P60002)” was tested. Which NP40-soluble protein abundance did it give?
A: 1.2 ± 0.067

Q: With “A0A087WVQ6|Q00610 and related entries (UniProt Q00610)” as the target, how does the NP40-soluble protein abundance read?
A: 0.788 ± 0.017

Q: For “A0A087WUZ9|Q16760 and related entries (UniProt Q16760)”, which NP40-soluble protein abundance is on record?
A: 1.05 ± 0.054

Q: “A0A087WU64|A6NMQ1 and related entries (UniProt P09884)” was tested. Which NP40-soluble protein abundance did it give?
A: 0.935 ± 0.026

Q: For A0A087WU53|Q9H0U3 (UniProt Q9H0U3), which NP40-soluble protein abundance is on record?
A: 0.95 ± 0.04

Q: Which NP40-soluble protein abundance does the source give for A0A024RAC6 (UniProt Q14241) here?
A: 1.09 ± 0.019

Q: For “A0A087WVF7|Q9NZM3 and related entries (UniProt Q9NZM3)”, which NP40-soluble protein abundance is on record?
A: 1.07 ± 0.051

Q: With “A0A075B738|P16284 and related entries (UniProt P16284)” as the target, how does the NP40-soluble protein abundance read?
A: 0.994 ± 0.032

Q: Which NP40-soluble protein abundance does the source give for “A0A087WUP3|F8WBY6 and related entries (UniProt Q8N3Z3)” here?
A: 1.003 ± 0.0086

Q: How did the NP40-soluble protein abundance turn out when “A0A087WUX8|A0A087WYF7|Q6UXV4 (UniProt Q6UXV4)” was run?
A: 1.06 ± 0.026

Q: A0A087WU65|Q9NRW7 (UniProt Q9NRW7) was tested. Which NP40-soluble protein abundance did it give?
A: 0.934 ± 0.016

Q: With A0A087WT20|Q9NV06 (UniProt Q9NV06) as the target, how does the NP40-soluble protein abundance read?
A: 0.991 ± 0.023

Q: With A0A087WUL2|P49720 (UniProt P49720) as the target, how does the NP40-soluble protein abundance read?
A: 1.08 ± 0.18

Q: With “A0A087WTU9|A0A087WZY3|Q8TCU4 and related entries (UniProt Q8TCU4)” as the target, how does the NP40-soluble protein abundance read?
A: 0.996 ± 0.14

Q: How did the NP40-soluble protein abundance turn out when A0A024QZP7|P06493 (UniProt P06493) was run?
A: 1 ± 0.015

Q: With “A0A087WV86|B5LMG6 and related entries (UniProt Q6PGQ7+B5LMG6)” as the target, how does the NP40-soluble protein abundance read?
A: 0.992 ± 0.016

Q: How did the NP40-soluble protein abundance turn out when A0A087WUT6|O60841 (UniProt O60841) was run?
A: 0.997 ± 0.035

Q: How did the NP40-soluble protein abundance turn out when A0A087WV05|Q99417 (UniProt Q99417) was run?
A: 0.918 ± 0.059

Q: “A0A087WUU7|Q96GX5 and related entries (UniProt Q96GX5)” was tested. Which NP40-soluble protein abundance did it give?
A: 0.991 ± 0.04

Q: How did the NP40-soluble protein abundance turn out when “A0A024RCR6|A0A0G2JK23|P46379 and related entries (UniProt P46379)” was run?
A: 0.963 ± 0.055
